“Also recorded” adds a separate entry of the source. At least one structure is not confirmed: it was looked up by name or label, or the drawing left a doubt.
Assays:
GM-CSF mRNA [1] = experiment: GM-CSF mRNA levels in eosinophils, RT-PCR/Southern blot; type: cell-based, human; settings: HA 4 h; CsA 1.6 μM or 16 μM; TAT proteins 160 or 320 nM
[2] = system: peripheral blood mononuclear cells (PBMC); experiment: Cytokine secretion by activated PBMC, ELISA; type: cell-based, human; settings: PMA/PHA, 1 uM juglone, 4 hours
[3] = system: peripheral blood mononuclear cells (PBMC); experiment: Cytokine mRNA accumulation in activated PBMC, northern blot / qPCR; type: cell-based, human
rat splenocytes [4] = experiment: Cytokine mRNAs in ionomycin/PMA activated splenocytes, qPCR; type: cell-based; settings: I/P
purified T cells = experiment: Cytokine mRNA in purified T cells activated with anti-CD3/anti-CD28, qPCR; type: cell-based, human; settings: anti-CD3/anti-CD28, juglone 0.1 or 1 μM, 4 hours
Experimental: Purified T cells were prepared by negative selection of PBMC (T cells>98% pure based on flow cytometry) and activated with a combination of anti-CD3 and anti-CD28 antibodies. Juglone was added at 0.1 or 1 μM as shown along with the antibodies or at various times (as shown) at 1 μM after the antibodies.
Purified T cells were prepared by negative selection of PBMC (T cells>98% pure based on flow cytometry) and activated with a combination of anti-CD3 and anti-CD28 antibodies. Juglone was added at 0.1 or 1 μM as shown along with the antibodies. After 4 hours total incubation time, cells were lysed and mRNA used for RT-qPCR for the cytokine mRNAs shown “−” refers to control cells activated but not exposed to juglone.
As PBMC are heterogeneous, this cell population was fractionated into T cells by negative selection (as described in Sedgwick et al., 2003, Am J Respir Cell Mol Biol. 29:702-9). […] These were then activated with anti-CD3 and anti-CD28 antibodies (obtained from Santa Cruz Biotech), and the effects of Pin1 blockade on cytokine gene expression assessed by qPCR. […] Juglone (1 μM) added along with antibody reduced GM-CSF mRNA by between 80-95%.

Amino acid sequences for entries named in this document (tags omitted). Residues count along the entry.
UniProt A0ABK0LFD7, 1-162: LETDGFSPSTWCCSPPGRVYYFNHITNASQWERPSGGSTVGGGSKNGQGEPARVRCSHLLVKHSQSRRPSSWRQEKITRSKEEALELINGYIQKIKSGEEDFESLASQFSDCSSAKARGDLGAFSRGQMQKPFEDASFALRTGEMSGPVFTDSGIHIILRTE

Pin1 and AUF1 = Pin1 and AUF1 protein levels in eosinophils, immunoprecipitation/immunoblot; type: cell-based, human; settings: resting or HA-activated Eos; juglone 1 μM
Pin1 [5] = biological target: T1, Pin1 (Rattus norvegicus, UniProt A0ABK0LFD7); experiment: Anti-Pin1 immunoblot of mediastinal lymph nodes and spleen; type: in vivo; settings: juglone treated versus control animals
T1 construct: White blood cells from lymph node, spleen, and bronchoalveolar lavage fluid were lysed by repeated freeze-thaw cycles; from tissue; host or cells: white blood cells from BAL fluid, mediastinal lymph node and spleen of WKY rat lung transplant recipients

[6] = system: lung transplant rejection; experiment: Orthotopic left lung allograft rejection, F344 donor into WKY rat, gross and histopathology; type: in vivo
primary lung fibroblasts = experiment: Collagen mRNA in TGF-β1 stimulated primary lung fibroblasts, RT-qPCR; type: cell-based; settings: TGFβ 1 ng/ml, juglone 1, 2, 3, 4 or 5 μM
Pin1 [7] = biological target: T1, Pin1; experiment: Pin1 isomerase assay on cell lysates of transplant recipients; type: biochemical
caspase 3 = experiment: Anti-caspase 3 immunoblot of eosinophil lysates; type: cell-based, human; settings: HA plus juglone, 4 h or 24 h
[8] = system: GM-CSF mRNA association with AUF1 / hnRNP C; experiment: Partitioning of GM-CSF mRNA with AREBPs, immunoprecipitation and RT-PCR/Southern blot; type: cell-based, human; settings: HA-treated Eos
rat splenocytes [9] = experiment: IFN-γ and IL-2 secretion by activated splenocytes, ELISA; type: cell-based; settings: I/P stimulated spleen cells, 24 hours
GM-CSF mRNA [10] = experiment: GM-CSF mRNA decay in eosinophils after actinomycin D; type: cell-based, human; settings: HA plus juglone 1 μM
[11] = system: cytokine expression and immune cells of transplant recipients; experiment: Immunologic analysis of lung transplant recipients (blood, spleen, BAL, lung, mediastinal lymph nodes)
[12] = 1 mg/kg juglone IP daily, day 7 or 14
[13] = 1 mg/kg juglone IP daily, day 8
[14] = juglone treated versus controls
[15] = juglone treated versus controls, qPCR

O=C1C=CC(=O)c2c(O)cccc21 [juglone]
GM-CSF mRNA levels in HA-treated Eos (GM-CSF mRNA [1]): reduced GM-CSF mRNA to untreated control levels; also recorded: antagonized HA-mediated increases in GM-CSF mRNA
Cytokine release by ELISA [2]: proportional reduction in cytokine release; also recorded: prevented cytokine secretion
Cytokine mRNA accumulation and secretion in anti-CD3/anti-CD28 stimulated PBMC ([3]; 4 hours): prevented cytokine mRNA accumulation as well as secretion
Cytokine mRNA accumulation, juglone added 2 hours after stimulation ([3]; juglone 1 μM): partial effect
Cytokine mRNA accumulation in PMA/PHA stimulated PBMC ([3]; juglone 1 uM, 4 h): almost completely blocked; also recorded: prevented cytokine mRNA accumulation; also recorded: inhibited cytokine mRNA accumulation
CXCL-10 (IP-10) mRNA level (rat splenocytes [4]; juglone 0.1 μM): largely unchanged
IFN-γ mRNA accumulation (rat splenocytes [4]; juglone 0.1 μM): significantly inhibited
IL-2 mRNA level (rat splenocytes [4]; juglone 0.1 μM): largely unchanged
TGF-β mRNA level (rat splenocytes [4]; juglone 0.1 μM): largely unchanged
TNF-α mRNA level (rat splenocytes [4]; juglone 0.1 μM): largely unchanged
CXCL-10 mRNA level (rat splenocytes [4]; juglone 1 μM): below resting levels
IFN-γ mRNA accumulation (rat splenocytes [4]; juglone 1 μM): completely blocked
IL-2 mRNA accumulation (rat splenocytes [4]; juglone 1 μM): completely blocked
TGF-β mRNA level (rat splenocytes [4]; juglone 1 μM): below resting levels
TNF-α mRNA level (rat splenocytes [4]; juglone 1 μM): significantly reduced
Cytokine mRNA accumulation in purified T cells (purified T cells): prevented purified T cells from accumulating GM-CSF mRNA; also recorded: prevented purified T cells from accumulating GM-CSF, IL-4 or TNF alpha mRNA
Pin1 and AUF1 protein levels in Eos (Pin1 and AUF1): rapidly reduced both Pin1 and AUF1 levels
Pin1 levels and activity in the spleen (Pin1 [5]): did not differ
Pin1 protein in mediastinal lymph nodes (Pin1 [5]): considerably reduced Pin1 protein
Collagen deposition in transplanted lung (trichrome) ([6]; 1 mg/kg juglone): minimal collagen deposition
Treated animals with absence of rejection changes ([6]; 1 mg/kg juglone IP daily): 8 out of 10
Gross appearance of transplanted lung [6, 12]: no gross signs of rejection
Microscopic appearance of transplanted lung [6, 12]: normal alveolar architecture, pleural thickness, and airway patency
Transplanted lung histopathology [6, 13]: did not reject allogeneic lung transplants
Transplanted rats with pulmonary sparing [6, 13]: six of eight
Transplanted lung histopathology ([6]; 1 mg/kg juglone IP daily, day 8, listed as Juglone): consistent and reproducible pulmonary sparing
Graft histopathology with forced expression of IFN-γ and CXCL-10 ([6]; donor lungs insufflated with expression vectors, juglone 1 mg/kg for 1 week): severe cellular infiltration irrespective of Pin1 blockade
Graft pathology ([6]; juglone 0.1 mg/kg/d for 7 days (suboptimal)): severe rejection pathology with substantial cellular infiltration and hemorrhage
Collagen I mRNA (primary lung fibroblasts): reduced in a dose dependent manner
Collagen III mRNA (primary lung fibroblasts): reduced in a dose dependent manner
Isomerase activity of untreated control BAL cell lysates after in vitro addition of juglone (Pin1 [7]; juglone 1 μM in vitro): could be reduced in vitro to that seen in lysates from treated animals
Pin1 activity in mediastinal lymph node cells (Pin1 [7]; juglone treated animals, day 7 after transplant): no Pin1 activity
Pin1 activity in BAL cells from the transplanted left lung (Pin1 [7]; juglone treated rats, day 7 after transplant): significantly reduced; also recorded: blocked
Caspase 3 activation in Eos (caspase 3): caspase 3 activation
GM-CSF mRNA association with AUF1 ([8]; brief exposure (juglone 1 μM 10 min; TAT-wwPin1 100 nM)): caused reassociation of GM-CSF mRNA with AUF1
GM-CSF mRNA steady state levels after brief exposure ([8]; juglone 10 min): little effect on GM-CSF mRNA steady state levels
IFN-γ secretion (rat splenocytes [9]): dramatic reductions
IL-2 secretion (rat splenocytes [9]): dramatic reductions
Decrease of GM-CSF mRNA stability versus HA alone (GM-CSF mRNA [10]): > 4 fold
GM-CSF mRNA half-life (t1/2) (GM-CSF mRNA [10]; actinomycin D 5 μg/ml): ~21 min
TNF-α, IL-2 and IFNγ mRNA levels in whole spleen, RT-PCR ([11]; 8 days after transplantation): significant changes; also recorded: significantly reduced
CXCL-10 mRNA in splenocytes, qPCR [11, 14]: significantly reduced
IFN-γ mRNA in splenocytes, qPCR [11, 14]: significantly reduced
IL-2 mRNA in splenocytes, qPCR [11, 14]: unchanged from controls
IL-4 mRNA in splenocytes, qPCR [11, 14]: unchanged from controls
TNF-α mRNA in splenocytes, qPCR [11, 14]: unchanged from controls
CXCL-10 mRNA in mediastinal lymph node cells [11, 15]: significantly lower
IFN-γ mRNA in mediastinal lymph node cells [11, 15]: significantly lower
IL-2 mRNA in mediastinal lymph node cells [11, 15]: significantly lower
IL-4 mRNA in mediastinal lymph node cells [11, 15]: unaffected
TGF-β1 mRNA in mediastinal lymph node cells [11, 15]: unaffected
TNF-α mRNA in mediastinal lymph node cells [11, 15]: significantly lower
Relative proportion of CD4, CD8 or γδ T cells in BAL fluid ([11]; native right lung or transplanted left lung): No significant difference
Number of total cells in BAL fluid compared to control animals ([11]; p<0.05): significantly reduced number
IL-2 production by activated spleen cells, ELISPOT ([11]; splenocytes of juglone treated recipients): significantly reduced; also recorded: significantly fewer
